Measurements as given in article PMC10967197.
No constants are given. Whether binding was seen depends on the method and setting. Binding seen in cells or lysates may run through a third protein. Some results given as binding are weak or reduced against the parent protein; the word gives no strength.

Amino acid sequences for entries named in this document (tags omitted).
UniProt Q9UKV8: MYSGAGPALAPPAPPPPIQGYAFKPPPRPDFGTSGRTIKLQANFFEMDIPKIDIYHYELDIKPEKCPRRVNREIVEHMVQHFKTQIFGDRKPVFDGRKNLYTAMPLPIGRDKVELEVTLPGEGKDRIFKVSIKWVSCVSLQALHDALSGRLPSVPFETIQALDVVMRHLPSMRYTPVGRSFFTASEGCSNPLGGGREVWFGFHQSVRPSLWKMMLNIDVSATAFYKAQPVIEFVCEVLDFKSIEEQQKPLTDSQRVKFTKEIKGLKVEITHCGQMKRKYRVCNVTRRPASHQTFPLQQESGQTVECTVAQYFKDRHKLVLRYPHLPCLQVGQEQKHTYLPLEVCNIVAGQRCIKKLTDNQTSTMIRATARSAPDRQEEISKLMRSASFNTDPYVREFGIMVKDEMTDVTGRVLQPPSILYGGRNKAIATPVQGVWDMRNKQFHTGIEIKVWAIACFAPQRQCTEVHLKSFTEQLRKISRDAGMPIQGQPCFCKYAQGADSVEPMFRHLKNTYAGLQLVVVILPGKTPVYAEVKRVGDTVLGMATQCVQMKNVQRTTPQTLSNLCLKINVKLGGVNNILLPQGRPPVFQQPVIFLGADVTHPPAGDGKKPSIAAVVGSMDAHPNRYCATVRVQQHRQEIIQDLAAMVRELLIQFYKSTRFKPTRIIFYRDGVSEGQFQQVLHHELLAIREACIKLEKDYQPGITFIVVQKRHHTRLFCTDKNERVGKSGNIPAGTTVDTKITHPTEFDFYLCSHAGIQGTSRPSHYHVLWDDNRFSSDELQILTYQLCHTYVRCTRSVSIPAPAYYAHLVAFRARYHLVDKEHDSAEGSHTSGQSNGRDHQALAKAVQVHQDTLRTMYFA
UniProt P11940: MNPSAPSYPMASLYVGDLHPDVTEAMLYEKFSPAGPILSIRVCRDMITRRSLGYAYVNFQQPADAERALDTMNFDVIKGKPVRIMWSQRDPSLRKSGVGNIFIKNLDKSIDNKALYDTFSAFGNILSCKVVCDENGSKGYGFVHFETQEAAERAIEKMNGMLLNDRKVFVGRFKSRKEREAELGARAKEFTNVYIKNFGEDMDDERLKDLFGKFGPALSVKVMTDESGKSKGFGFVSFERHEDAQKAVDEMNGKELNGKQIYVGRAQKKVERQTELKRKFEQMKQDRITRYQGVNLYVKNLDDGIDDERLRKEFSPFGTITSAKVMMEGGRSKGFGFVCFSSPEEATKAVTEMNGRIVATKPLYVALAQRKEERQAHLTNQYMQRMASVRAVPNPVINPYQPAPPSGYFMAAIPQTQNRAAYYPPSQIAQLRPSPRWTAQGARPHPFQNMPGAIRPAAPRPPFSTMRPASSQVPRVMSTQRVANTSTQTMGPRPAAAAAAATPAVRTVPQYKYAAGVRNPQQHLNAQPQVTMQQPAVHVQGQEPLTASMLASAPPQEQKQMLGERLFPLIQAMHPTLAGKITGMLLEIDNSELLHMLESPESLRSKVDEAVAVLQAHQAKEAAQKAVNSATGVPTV

Molecular target: Argonaute risk component 2 (human (endogenous in HUVECs)) (UniProt Q9UKV8)
Assay: co-IP; primary and IgG antibodies cross-linked to protein A/G magnetic beads; lysate of 1 x 10^7 HUVECs incubated with the beads at 25 °C for 1 h; bound proteins identified by western blot

binding: binds
Substance: Poly(A) binding protein cytoplasmic 1 (from UniProt P11940 1-636)
